Data published in the supplement of paper PMC10849652.
Some of the results follow.

Amino acid sequences for entries named in this document (tags omitted). A change or cut given only in a name is not applied to a line headed by its entry.
UniProt Q6ZV70: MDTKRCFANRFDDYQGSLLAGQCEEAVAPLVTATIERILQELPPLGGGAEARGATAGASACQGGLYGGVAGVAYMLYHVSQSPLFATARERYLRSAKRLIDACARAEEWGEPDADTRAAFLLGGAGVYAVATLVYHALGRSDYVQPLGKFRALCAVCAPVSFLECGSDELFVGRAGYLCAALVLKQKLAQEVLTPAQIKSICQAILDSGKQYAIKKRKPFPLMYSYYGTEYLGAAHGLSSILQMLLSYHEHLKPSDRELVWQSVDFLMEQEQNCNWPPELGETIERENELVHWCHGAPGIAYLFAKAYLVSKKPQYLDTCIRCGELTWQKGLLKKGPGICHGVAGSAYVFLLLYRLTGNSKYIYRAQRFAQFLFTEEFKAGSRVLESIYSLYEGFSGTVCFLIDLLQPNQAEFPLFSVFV
UniProt O95214: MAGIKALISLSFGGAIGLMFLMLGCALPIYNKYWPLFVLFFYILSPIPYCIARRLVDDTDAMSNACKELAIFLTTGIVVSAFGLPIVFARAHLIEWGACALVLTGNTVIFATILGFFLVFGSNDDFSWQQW
UniProt Q15048: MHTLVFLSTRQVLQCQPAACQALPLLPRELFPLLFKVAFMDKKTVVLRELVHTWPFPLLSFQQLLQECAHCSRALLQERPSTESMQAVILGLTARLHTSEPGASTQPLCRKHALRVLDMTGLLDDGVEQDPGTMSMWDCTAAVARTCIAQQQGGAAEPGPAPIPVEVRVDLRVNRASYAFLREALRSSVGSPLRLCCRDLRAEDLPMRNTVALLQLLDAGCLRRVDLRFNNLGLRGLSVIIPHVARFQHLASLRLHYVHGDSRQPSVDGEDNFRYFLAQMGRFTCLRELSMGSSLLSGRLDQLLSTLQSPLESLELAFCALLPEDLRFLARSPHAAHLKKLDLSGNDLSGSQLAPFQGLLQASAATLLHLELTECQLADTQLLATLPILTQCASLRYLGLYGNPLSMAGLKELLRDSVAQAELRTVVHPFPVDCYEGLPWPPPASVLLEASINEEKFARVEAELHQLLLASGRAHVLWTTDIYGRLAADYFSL
UniProt P24043: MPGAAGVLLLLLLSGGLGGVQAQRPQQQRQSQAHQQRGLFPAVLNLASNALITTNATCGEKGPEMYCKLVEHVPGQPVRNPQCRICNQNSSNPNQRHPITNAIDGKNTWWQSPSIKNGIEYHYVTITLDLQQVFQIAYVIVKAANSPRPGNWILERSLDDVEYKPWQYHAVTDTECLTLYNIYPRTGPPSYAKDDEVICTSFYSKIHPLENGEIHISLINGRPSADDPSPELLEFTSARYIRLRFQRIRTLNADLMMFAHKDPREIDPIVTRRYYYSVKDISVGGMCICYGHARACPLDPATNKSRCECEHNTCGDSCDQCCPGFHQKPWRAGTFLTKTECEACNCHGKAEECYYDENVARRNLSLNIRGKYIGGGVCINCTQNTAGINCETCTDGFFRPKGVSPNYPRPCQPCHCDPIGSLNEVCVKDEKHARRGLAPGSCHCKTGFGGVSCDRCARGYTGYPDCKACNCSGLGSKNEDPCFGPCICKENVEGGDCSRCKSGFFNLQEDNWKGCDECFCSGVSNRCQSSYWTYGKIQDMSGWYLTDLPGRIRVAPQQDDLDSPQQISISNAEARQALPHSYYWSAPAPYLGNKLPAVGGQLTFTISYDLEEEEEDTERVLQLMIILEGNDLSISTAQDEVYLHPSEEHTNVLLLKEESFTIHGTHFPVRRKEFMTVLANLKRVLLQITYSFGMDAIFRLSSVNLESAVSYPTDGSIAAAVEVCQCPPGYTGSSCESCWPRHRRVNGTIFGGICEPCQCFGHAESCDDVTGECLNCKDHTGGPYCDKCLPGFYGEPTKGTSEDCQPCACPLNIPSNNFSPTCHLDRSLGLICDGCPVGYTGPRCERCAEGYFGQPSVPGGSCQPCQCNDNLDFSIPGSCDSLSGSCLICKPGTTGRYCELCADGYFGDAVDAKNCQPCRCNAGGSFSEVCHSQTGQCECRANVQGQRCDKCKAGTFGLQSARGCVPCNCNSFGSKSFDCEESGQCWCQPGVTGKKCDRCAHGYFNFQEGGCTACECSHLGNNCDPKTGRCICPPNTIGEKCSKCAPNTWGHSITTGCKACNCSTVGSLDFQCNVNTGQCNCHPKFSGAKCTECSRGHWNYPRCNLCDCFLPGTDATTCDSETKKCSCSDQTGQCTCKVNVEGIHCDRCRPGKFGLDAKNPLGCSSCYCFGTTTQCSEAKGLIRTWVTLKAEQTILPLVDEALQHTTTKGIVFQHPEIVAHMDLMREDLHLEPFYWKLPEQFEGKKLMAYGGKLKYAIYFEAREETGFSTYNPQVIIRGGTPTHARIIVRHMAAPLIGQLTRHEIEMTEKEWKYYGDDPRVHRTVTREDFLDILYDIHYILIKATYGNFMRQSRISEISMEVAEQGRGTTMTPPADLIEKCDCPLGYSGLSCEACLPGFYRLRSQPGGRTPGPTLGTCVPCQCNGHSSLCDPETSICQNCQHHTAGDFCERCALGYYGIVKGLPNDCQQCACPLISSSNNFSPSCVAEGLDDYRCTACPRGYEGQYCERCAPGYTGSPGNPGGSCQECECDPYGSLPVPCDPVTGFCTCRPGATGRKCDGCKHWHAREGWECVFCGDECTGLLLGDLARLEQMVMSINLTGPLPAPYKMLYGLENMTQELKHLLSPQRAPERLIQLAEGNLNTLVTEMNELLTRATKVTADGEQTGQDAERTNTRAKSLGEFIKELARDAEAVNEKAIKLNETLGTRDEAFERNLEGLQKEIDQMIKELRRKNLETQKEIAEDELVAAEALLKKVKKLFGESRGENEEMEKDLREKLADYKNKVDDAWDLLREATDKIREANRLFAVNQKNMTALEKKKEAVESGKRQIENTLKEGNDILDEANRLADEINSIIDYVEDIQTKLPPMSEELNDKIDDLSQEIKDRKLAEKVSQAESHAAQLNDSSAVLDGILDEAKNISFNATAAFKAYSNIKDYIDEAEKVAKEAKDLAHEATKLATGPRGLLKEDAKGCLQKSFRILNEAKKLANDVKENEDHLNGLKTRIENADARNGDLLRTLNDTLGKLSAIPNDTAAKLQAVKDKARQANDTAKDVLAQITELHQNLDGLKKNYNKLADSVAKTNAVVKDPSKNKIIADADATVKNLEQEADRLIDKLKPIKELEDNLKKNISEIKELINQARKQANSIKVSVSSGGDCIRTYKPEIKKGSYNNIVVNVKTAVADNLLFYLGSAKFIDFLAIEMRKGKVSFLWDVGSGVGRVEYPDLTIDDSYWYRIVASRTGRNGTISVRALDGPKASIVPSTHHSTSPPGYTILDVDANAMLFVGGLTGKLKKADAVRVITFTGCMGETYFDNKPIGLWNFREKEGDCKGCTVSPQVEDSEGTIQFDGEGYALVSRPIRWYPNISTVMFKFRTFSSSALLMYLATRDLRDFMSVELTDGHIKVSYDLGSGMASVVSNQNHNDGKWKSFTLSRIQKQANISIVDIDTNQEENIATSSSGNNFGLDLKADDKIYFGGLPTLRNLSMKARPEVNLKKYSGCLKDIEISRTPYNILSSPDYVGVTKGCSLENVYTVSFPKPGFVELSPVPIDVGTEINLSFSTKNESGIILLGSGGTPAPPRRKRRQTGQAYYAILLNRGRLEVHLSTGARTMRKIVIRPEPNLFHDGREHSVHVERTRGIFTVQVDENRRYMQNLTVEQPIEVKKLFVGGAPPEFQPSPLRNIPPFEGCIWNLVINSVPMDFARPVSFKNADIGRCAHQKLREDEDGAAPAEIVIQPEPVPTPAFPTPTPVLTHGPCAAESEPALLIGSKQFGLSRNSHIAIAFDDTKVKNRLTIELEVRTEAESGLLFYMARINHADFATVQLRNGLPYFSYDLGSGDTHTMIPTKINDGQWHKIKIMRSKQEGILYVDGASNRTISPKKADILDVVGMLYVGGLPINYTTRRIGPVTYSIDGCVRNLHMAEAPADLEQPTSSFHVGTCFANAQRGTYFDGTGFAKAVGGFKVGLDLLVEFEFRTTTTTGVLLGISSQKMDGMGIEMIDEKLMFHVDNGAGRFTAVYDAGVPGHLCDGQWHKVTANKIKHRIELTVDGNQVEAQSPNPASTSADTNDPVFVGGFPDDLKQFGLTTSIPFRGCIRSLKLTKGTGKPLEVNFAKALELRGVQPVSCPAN
UniProt P49917: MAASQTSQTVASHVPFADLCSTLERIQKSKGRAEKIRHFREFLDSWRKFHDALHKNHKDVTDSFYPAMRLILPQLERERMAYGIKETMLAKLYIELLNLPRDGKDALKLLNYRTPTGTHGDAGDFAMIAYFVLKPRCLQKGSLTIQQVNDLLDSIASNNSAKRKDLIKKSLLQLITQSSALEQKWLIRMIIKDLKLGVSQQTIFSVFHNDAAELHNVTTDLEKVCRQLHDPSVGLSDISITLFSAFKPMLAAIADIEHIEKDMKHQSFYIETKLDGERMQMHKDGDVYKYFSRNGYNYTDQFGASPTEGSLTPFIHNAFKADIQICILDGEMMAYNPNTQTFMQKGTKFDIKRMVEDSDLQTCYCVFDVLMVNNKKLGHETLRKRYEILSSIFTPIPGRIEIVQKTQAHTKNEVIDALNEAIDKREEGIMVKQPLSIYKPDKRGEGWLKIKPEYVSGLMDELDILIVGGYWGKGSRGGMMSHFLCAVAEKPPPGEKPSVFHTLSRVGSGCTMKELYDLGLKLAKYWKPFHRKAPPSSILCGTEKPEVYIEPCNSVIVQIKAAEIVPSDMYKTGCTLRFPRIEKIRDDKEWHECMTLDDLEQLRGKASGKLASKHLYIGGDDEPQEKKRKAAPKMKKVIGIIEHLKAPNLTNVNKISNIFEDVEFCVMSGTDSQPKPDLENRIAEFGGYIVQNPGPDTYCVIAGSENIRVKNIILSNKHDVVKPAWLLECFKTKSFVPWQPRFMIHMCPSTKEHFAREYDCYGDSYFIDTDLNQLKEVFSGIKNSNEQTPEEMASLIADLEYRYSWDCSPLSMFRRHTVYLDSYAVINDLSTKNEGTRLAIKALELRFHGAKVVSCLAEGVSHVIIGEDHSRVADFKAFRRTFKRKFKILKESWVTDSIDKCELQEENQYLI
UniProt P07864: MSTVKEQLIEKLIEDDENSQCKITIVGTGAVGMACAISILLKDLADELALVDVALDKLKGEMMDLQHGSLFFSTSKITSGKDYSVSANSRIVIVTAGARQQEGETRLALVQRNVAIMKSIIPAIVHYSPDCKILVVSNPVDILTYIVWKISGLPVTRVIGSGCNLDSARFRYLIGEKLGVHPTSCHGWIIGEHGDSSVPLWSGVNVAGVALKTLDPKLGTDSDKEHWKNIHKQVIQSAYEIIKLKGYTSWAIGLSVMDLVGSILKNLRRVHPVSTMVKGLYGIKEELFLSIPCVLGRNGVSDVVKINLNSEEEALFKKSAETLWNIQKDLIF
UniProt P13473: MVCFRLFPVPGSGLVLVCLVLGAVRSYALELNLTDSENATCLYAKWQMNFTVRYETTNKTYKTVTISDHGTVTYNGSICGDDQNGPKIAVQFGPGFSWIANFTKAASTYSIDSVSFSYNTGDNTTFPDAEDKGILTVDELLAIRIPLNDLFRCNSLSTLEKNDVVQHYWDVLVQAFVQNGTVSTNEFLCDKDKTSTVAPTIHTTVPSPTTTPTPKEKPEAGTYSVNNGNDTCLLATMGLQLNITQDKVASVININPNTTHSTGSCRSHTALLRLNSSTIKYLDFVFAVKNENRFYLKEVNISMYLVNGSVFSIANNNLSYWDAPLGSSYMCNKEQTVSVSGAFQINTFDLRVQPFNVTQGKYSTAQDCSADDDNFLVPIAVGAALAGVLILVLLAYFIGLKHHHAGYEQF
UniProt Q6ZUX7: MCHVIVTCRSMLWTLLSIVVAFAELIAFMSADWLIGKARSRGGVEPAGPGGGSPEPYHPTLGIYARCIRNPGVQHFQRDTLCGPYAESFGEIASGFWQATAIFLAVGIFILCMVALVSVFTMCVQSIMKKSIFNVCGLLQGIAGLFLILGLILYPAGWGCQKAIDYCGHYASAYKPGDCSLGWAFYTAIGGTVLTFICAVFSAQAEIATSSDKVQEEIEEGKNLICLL
UniProt Q96FQ7: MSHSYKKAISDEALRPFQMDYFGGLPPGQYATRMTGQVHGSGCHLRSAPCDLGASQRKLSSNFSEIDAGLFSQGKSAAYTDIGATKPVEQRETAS
UniProt Q9Y546: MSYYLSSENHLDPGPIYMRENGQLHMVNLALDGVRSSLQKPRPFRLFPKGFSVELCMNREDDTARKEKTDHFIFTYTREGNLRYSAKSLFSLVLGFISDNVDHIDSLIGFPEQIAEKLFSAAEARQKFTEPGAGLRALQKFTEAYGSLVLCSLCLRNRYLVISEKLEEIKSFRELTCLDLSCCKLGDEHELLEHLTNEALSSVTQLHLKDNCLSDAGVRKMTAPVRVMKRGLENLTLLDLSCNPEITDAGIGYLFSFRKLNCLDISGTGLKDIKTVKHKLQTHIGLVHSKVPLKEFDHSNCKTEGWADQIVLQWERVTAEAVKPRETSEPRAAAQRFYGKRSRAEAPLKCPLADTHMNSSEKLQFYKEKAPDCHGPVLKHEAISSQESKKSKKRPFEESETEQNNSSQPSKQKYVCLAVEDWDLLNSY

compound: CC[C@H](C)N1C=C(C2=C(C=C(C=C21)C3=CN=C(C=C3)N4CCNCC4)C(=O)NCC5=C(C=C(NC5=O)C)C)C; test: log2 fold change, soluble protein after heating vs DMSO (PISA); higher = thermal stabilisation; K562 cells, 10 uM, 30 min; active = over 0.2 and 3.5 SD of the protein, either way, in both replicates (recomputed)
Outline: (§1)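 K562 cells at 2×10^6 cells/mL were treated for 30 min with 10 μM compound, and aliquots were heated for 3 min over 48°C-58°C before pooling. Extraction used PBS with 0.5% NP-40 at 4°C, and soluble protein was the supernatant after 21,000xg for 90 min, measured by TMTpro 16plex LC-MS/MS with channel sums equalised. Thermal stability values, relative to control samples and from duplicates, are log2 fold changes.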

log2 fold change, inactive:
LAMA5 (UniProt O15230) -0.065
LGALS3BP (UniProt Q08380) -0.091
LBH (UniProt Q53QV2) -0.023
LANCL3 (UniProt Q6ZV70) 0.173
LLGL2 (UniProt Q6P1M3) 0.023
LEPROTL1 isoform 2 (UniProt O95214) -0.234
LRRC14 (UniProt Q15048) 0.251
LOX (UniProt P28300) -0.191
LAMA2 (UniProt P24043) -0.099
LIG4 (UniProt P49917) 0.042
LDHC (UniProt P07864) -0.041
LRP1 (UniProt Q07954) -0.036
LAMP2 isoform 2 (UniProt P13473) -0.078
LGALS3 (UniProt P17931) 0.096
LRP5 (UniProt O75197) 0.005

compound: CC[C@H](C)[C@@H](C(=O)N[C@@H]([C@@H](C)O)C(=O)N[C@@H](CC(C)C)C(=O)[C@]1(CO1)C)NC(=O)[C@H]([C@@H](C)CC)N(C)C(=O)C [epoxomicin]; test: as above
Outline: as §1

log2 fold change, inactive:
LAMA5 (UniProt O15230) -0.117
LGALS3BP (UniProt Q08380) -0.005
LIPT2 (UniProt A6NK58) 0.087
KXD1 (UniProt Q9BQD3) -0.077
LBH (UniProt Q53QV2) 0.138
LEPROT (UniProt O15243) 0.129
LANCL3 (UniProt Q6ZV70) 0.053
LLGL2 (UniProt Q6P1M3) -0.091
LMLN isoform 3 (UniProt Q96KR4) -0.131
LOR (UniProt P23490) 0.711
LDHC (UniProt P07864) 0.523
LRP1 (UniProt Q07954) -0.038
LAMP2 isoform 2 (UniProt P13473) -0.016
LHFPL2 (UniProt Q6ZUX7) 0.084
LRP5 (UniProt O75197) 0.048
LPCAT4 (UniProt Q643R3) 0.092

compound: CCn1c(C(=O)N(C2CC2)C2CC2)cc2c3c(ncn3C)c(Nc3cc(C)n(C)n3)nc21; test: as above
Outline: as §1

log2 fold change, inactive:
LAMA5 (UniProt O15230) -0.012
LDHD (UniProt Q86WU2) 0.057
LINC00526 (UniProt Q96FQ7) 0.095
LRRC42 (UniProt Q9Y546) -0.117
LLGL2 (UniProt Q6P1M3) -0.009
LRRC14 (UniProt Q15048) -0.187
LAMA2 (UniProt P24043) -0.169
LHFPL2 (UniProt Q6ZUX7) 0.086

compound: CCn1cc(-c2ccnc3[nH]c(-c4cccc(CN(C)C)c4)cc23)c(-c2ccc(NC(=O)N(C)C)cc2)n1; test: as above
Outline: as §1

log2 fold change, inactive:
LAMA5 (UniProt O15230) 0.053
LGMN (UniProt Q99538) -0.071
L1TD1 (UniProt Q5T7N2) -0.394
KXD1 (UniProt Q9BQD3) 0.041
LAMC1 (UniProt P11047) -0.202
LEPROT (UniProt O15243) 0.075
LRRC42 (UniProt Q9Y546) -0.028
LIN28A (UniProt Q9H9Z2) -0.098
LLGL2 (UniProt Q6P1M3) 0.12
LAPTM4B (UniProt Q86VI4) 0.216
LMO4 (UniProt P61968) 0.073
LATS1 (UniProt O95835) -0.001
LIG4 (UniProt P49917) -0.143
LAPTM5 (UniProt Q13571) 0.119
LRP1 (UniProt Q07954) -0.227
LAMP2 isoform 2 (UniProt P13473) -0.01
LGALS3 (UniProt P17931) -0.192
LRP5 (UniProt O75197) 0.048

compound: CN(C)CC(=O)Nc1ccc2[nH]c(=O)c3ccccc3c2c1; test: as above
Outline: as §1

log2 fold change, inactive:
LAMA5 (UniProt O15230) -0.172
LIPT2 (UniProt A6NK58) -0.039
KXD1 (UniProt Q9BQD3) 0.062
LRRC42 (UniProt Q9Y546) -0.063
LEPROTL1 isoform 2 (UniProt O95214) 0.164
LRRC14 (UniProt Q15048) 0.121
LIG4 (UniProt P49917) 0.338
LRP1 (UniProt Q07954) -0.042
LAMP2 isoform 2 (UniProt P13473) 0.012
LHFPL2 (UniProt Q6ZUX7) 0.38
LRP5 (UniProt O75197) -0.08

compound: CN(CCOC1=CC=C(C=C1)C[C@H]2C(=O)NC(=O)S2)C3=CC=CC=N3 (racemic) [rosiglitazone]; test: as above
Outline: as §1

log2 fold change, inactive:
LRRC42 (UniProt Q9Y546) -0.034
LIN28A (UniProt Q9H9Z2) -0.049
LANCL3 (UniProt Q6ZV70) 0.037
LLGL2 (UniProt Q6P1M3) 0.001
LMO4 (UniProt P61968) -0.04
LEPROTL1 isoform 2 (UniProt O95214) -0.201
LRRC14 (UniProt Q15048) -0.007
LAMA2 (UniProt P24043) -0.141
LMLN isoform 3 (UniProt Q96KR4) 0.183
LDHC (UniProt P07864) 0.335
LIMS1 (UniProt P48059) -0.084
LAPTM5 (UniProt Q13571) 0.076
LGALS3 (UniProt P17931) 0.148
